The exact form of at least one protein or probe is not confirmed. Negatives hold for the conditions tested.
System: RNAP-σ70 holoenzyme (Eσ70) + KorB
Experiment: native MS
Conditions: 2.5-fold excess KorB, Eσ70 dissociated, no ternary complex

Q: Does “GTTACGCCAAGGACGAGTTTTAGCGGCTAAAGGTGTTGACGTGCGAGAAATGTTTAGCTAAACTTCTCTCATGTGCTGGCGGCTGTCACCGCTATGTTCA (double strand) [PkorA 100 bp]” bind?
A: Result: no binding
